According to paper PMC7297381, “Potent, specific MEPicides for treatment of zoonotic staphylococci” (PLoS Pathogens, 2020):

Tested on: S. schleiferi wild-type and glpT mutant isolates
Test: Quantification of intracellular FSM by LC-MS

## O=CN(O)CCCP(=O)(O)O [FSM, fosmidomycin]
Four FSM-resistant glpT mutant S. schleiferi strains (3408, 4494, 7376, 8400)
  intracellular accumulation of FSM: do not
wild-type S. schleiferi, FSM at 10x WT IC50
  intracellular accumulation of FSM: readily accumulates
